Reference: the supplement of paper PMC8728848
The other results are listed elsewhere or left out.

Legend:
Test in all cases: glycan array binding signal (z-score within array); higher = stronger binding
Conditions in all cases: glycan notation: IUPAC condensed, linker removed
[1] = target: Gal(b1-3)GlcNAc(b1-6)GalNAc
Method in brief: (§1)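 The binding signal is a Z-score computed within each array and averaged over linkers. Arrays of the same protein sequence at different concentrations or buffers were also averaged together. Data originate from 3228 arrays in the Consortium for Functional Glycomics database, kept only where the protein sequence was available.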

[2] = target: Gal(b1-3)GlcNAc(b1-6)[Gal(b1-3)]GalNAc
Method in brief: as §1

Gal(b1-3)GlcNAc6S = target: Gal(b1-3)GlcNAc6S
Method in brief: as §1

[3] = target: Gal(b1-3)[Fuc(a1-4)]GlcNAc
Method in brief: as §1

[4] = target: Gal(b1-3)[Fuc(a1-4)]GlcNAc(b1-2)Man
Method in brief: as §1

[5] = target: Gal(b1-3)[Fuc(a1-4)]GlcNAc(b1-2)Man(a1-3)[Gal(b1-3)[Fuc(a1-4)]GlcNAc(b1-2)Man(a1-6)]Man(b1-4)GlcNAc(b1-4)[Fuc(a1-6)]GlcNAc
Method in brief: as §1

[6] = target: Gal(b1-3)[Fuc(a1-4)]GlcNAc(b1-3)Gal(b1-3)[Fuc(a1-4)]GlcNAc
Method in brief: as §1

[7] = target: Gal(b1-3)[Fuc(a1-4)]GlcNAc(b1-3)Gal(b1-4)[Fuc(a1-3)]GlcNAc
Method in brief: as §1

[8] = target: Gal(b1-3)[Fuc(a1-4)]GlcNAc(b1-6)GalNAc
Method in brief: as §1

[9] = target: Gal(b1-3)[GlcNAc(b1-6)]GalNAc
Method in brief: as §1

[10] = target: Gal(b1-3)[Neu5Ac(a2-6)]GalNAc
Method in brief: as §1

[11] = target: Gal(b1-3)[Neu5Ac(a2-6)]GlcNAc(b1-4)Gal(b1-4)Glc
Method in brief: as §1

[12] = target: Gal(b1-3)[Neu5Ac(b2-6)]GalNAc
Method in brief: as §1

Gal(b1-4)Gal = target: Gal(b1-4)Gal
Method in brief: as §1

[13] = target: Gal(b1-4)GalNAc(a1-3)[Fuc(a1-2)]Gal(b1-4)GlcNAc
Method in brief: as §1

[14] = target: Gal(b1-4)GalNAc(b1-3)[Fuc(a1-2)]Gal(b1-4)GlcNAc
Method in brief: as §1

Gal(b1-4)Glc = target: Gal(b1-4)Glc
Method in brief: as §1

Gal(b1-4)Glc6S = target: Gal(b1-4)Glc6S
Method in brief: as §1

Gal(b1-4)GlcNAc = target: Gal(b1-4)GlcNAc
Method in brief: as §1

[15] = target: Gal(b1-4)GlcNAc(a1-6)Gal(b1-4)GlcNAc
Method in brief: as §1

Gal(b1-4)GlcNAc(b1-2)Man = target: Gal(b1-4)GlcNAc(b1-2)Man
Method in brief: as §1

[16] = target: Gal(b1-4)GlcNAc(b1-2)Man(a1-3)Man(b1-4)GlcNAc(b1-4)GlcNAc
Method in brief: as §1

[17] = target: Gal(b1-4)GlcNAc(b1-2)Man(a1-3)[Gal(b1-4)GlcNAc(b1-2)Man(a1-6)]Man(b1-4)GlcNAc(b1-4)GlcNAc
Method in brief: as §1

[18] = target: Gal(b1-4)GlcNAc(b1-2)Man(a1-3)[Gal(b1-4)GlcNAc(b1-2)Man(a1-6)]Man(b1-4)GlcNAc(b1-4)[Fuc(a1-6)]GlcNAc
Method in brief: as §1

[19] = target: Gal(b1-4)GlcNAc(b1-2)Man(a1-3)[Gal(b1-4)GlcNAc(b1-2)Man(a1-6)][Gal(b1-4)GlcNAc(b1-4)]Man(b1-4)GlcNAc(b1-4)[Fuc(a1-6)]GlcNAc
Method in brief: as §1

[20] = target: Gal(b1-4)GlcNAc(b1-2)Man(a1-3)[Gal(b1-4)GlcNAc(b1-2)Man(a1-6)][GlcNAc(b1-4)]Man(b1-4)GlcNAc(b1-4)[Fuc(a1-6)]GlcNAc
Method in brief: as §1

[21] = target: Gal(b1-4)GlcNAc(b1-2)Man(a1-3)[GlcNAc(b1-2)Man(a1-6)]Man(b1-4)GlcNAc(b1-4)GlcNAc
Method in brief: as §1

[22] = target: Gal(b1-4)GlcNAc(b1-2)Man(a1-3)[GlcNAc(b1-4)][Gal(b1-4)GlcNAc(b1-2)Man(a1-6)]Man(b1-4)GlcNAc(b1-4)GlcNAc
Method in brief: as §1

[23] = target: Gal(b1-4)GlcNAc(b1-2)Man(a1-3)[Man(a1-6)]Man(b1-4)GlcNAc(b1-4)GlcNAc
Method in brief: as §1

[24] = target: Gal(b1-4)GlcNAc(b1-2)Man(a1-6)Man(b1-4)GlcNAc(b1-4)GlcNAc
Method in brief: as §1

[25] = target: Gal(b1-4)GlcNAc(b1-2)Man(a1-6)[GlcNAc(b1-2)Man(a1-3)]Man(b1-4)GlcNAc(b1-4)GlcNAc
Method in brief: as §1

[26] = target: Gal(b1-4)GlcNAc(b1-2)Man(a1-6)[Man(a1-3)]Man(b1-4)GlcNAc(b1-4)GlcNAc
Method in brief: as §1

[27] = target: Gal(b1-4)GlcNAc(b1-2)[Gal(b1-4)GlcNAc(b1-4)]Man(a1-3)[Gal(b1-4)GlcNAc(b1-2)Man(a1-6)]Man(b1-4)GlcNAc(b1-4)GlcNAc
Method in brief: as §1

[28] = target: Gal(b1-4)GlcNAc(b1-2)[Gal(b1-4)GlcNAc(b1-4)]Man(a1-3)[Gal(b1-4)GlcNAc(b1-2)[Gal(b1-4)GlcNAc(b1-6)]Man(a1-6)]Man(b1-4)GlcNAc(b1-4)GlcNAc
Method in brief: as §1

[29] = target: Gal(b1-4)GlcNAc(b1-2)[Gal(b1-4)GlcNAc(b1-4)]Man(a1-3)[GlcNAc(b1-4)][Gal(b1-4)GlcNAc(b1-2)Man(a1-6)]Man(b1-4)GlcNAc(b1-4)GlcNAc
Method in brief: as §1

[30] = target: Gal(b1-4)GlcNAc(b1-2)[Gal(b1-4)GlcNAc(b1-4)]Man(a1-3)[GlcNAc(b1-4)][Gal(b1-4)GlcNAc(b1-2)[Gal(b1-4)GlcNAc(b1-6)]Man(a1-6)]Man(b1-4)GlcNAc(b1-4)GlcNAc
Method in brief: as §1

[31] = target: Gal(b1-4)GlcNAc(b1-2)[Gal(b1-4)GlcNAc(b1-6)]Man(a1-6)[Gal(b1-4)GlcNAc(b1-2)Man(a1-3)]Man(b1-4)GlcNAc(b1-4)GlcNAc
Method in brief: as §1

[32] = target: Gal(b1-4)GlcNAc(b1-2)[Gal(b1-4)GlcNAc(b1-6)]Man(a1-6)[Gal(b1-4)GlcNAc(b1-2)Man(a1-3)]Man(b1-4)GlcNAc(b1-4)[Fuc(a1-6)]GlcNAc
Method in brief: as §1

[33] = target: Gal(b1-4)GlcNAc(b1-2)[Gal(b1-4)GlcNAc(b1-6)]Man(a1-6)[GlcNAc(b1-4)][Gal(b1-4)GlcNAc(b1-2)Man(a1-3)]Man(b1-4)GlcNAc(b1-4)GlcNAc
Method in brief: as §1

[34] = target: Gal(b1-4)GlcNAc(b1-2)[Gal(b1-4)GlcNAc(b1-6)]Man(a1-6)[GlcNAc(b1-4)][Gal(b1-4)GlcNAc(b1-2)[Gal(b1-4)GlcNAc(b1-4)]Man(a1-3)]Man(b1-4)GlcNAc(b1-4)[Fuc(a1-6)]GlcNAc
Method in brief: as §1

[35] = target: Gal(b1-4)GlcNAc(b1-3)Gal(b1-3)GalNAc
Method in brief: as §1

[36] = target: Gal(b1-4)GlcNAc(b1-3)Gal(b1-3)GlcNAc
Method in brief: as §1

[37] = target: Gal(b1-4)GlcNAc(b1-3)Gal(b1-4)Glc
Method in brief: as §1

[38] = target: Gal(b1-4)GlcNAc(b1-3)Gal(b1-4)GlcNAc
Method in brief: as §1

[39] = target: Gal(b1-4)GlcNAc(b1-3)Gal(b1-4)GlcNAc(b1-2)Man(a1-3)[Gal(b1-4)GlcNAc(b1-3)Gal(b1-4)GlcNAc(b1-2)Man(a1-6)]Man(b1-4)GlcNAc(b1-4)GlcNAc
Method in brief: as §1

B1: AT5G24760(45) (Arabidopsis thaliana), Q8LEB2 (protein)
chain: MSASSSSFEQPQVITCNAAVAWRAGEPLVMEEVEVSPPQPLEIRIKVVCTSLCRSDLSAWESQSLLPRIFGHEAAGIVESIGEGVTEFEKGDHVLAVFTGECGSCRHCISGKSNMCQVLGMERKGLMHSDQKTRFSIKGKPVYHYCAVSSFSEYTVVHSGCAVKVDPLAPLHKICLLSCGVAAGLGAAWNVADVQKGSSVVIFGLGTVGLSVAQGAKLRGAAQILGVDINPAKAEQAKTFGVTDFINSNDLSEPIPQVIKRMTGGGADFSFECVGDTGIATTALQSCSDGWGMTVTLGVPKAKPEVSAHYGLFLSGKSLKGTLFGGWKPKSDLPSLIDKYMNKEIMIDEFITHNLSFDEINKAFVLMREGKCLRCVLHMPK
In the case of B1, the “glycan array binding signal (z-score)” value [1] is reported as -0.54, the “glycan array binding signal (z-score)” value [2] is reported as -0.307 and the “glycan array binding signal (z-score)” value (Gal(b1-3)GlcNAc6S) is reported as -0.515. For the same binder, the “glycan array binding signal (z-score)” value [3] was 1.6, the “glycan array binding signal (z-score)” value [4] was -1.06 and the “glycan array binding signal (z-score)” value [5] was -0.439. For the same binder, the “glycan array binding signal (z-score)” value [6] was -0.507, the “glycan array binding signal (z-score)” value [7] was 0.052 and the “glycan array binding signal (z-score)” value [8] was -0.242. The “glycan array binding signal (z-score)” value [9] was 0.39, the “glycan array binding signal (z-score)” value [10] was -0.212 and the “glycan array binding signal (z-score)” value [11] was -0.277. The “glycan array binding signal (z-score)” value [12] was 0.708, the “glycan array binding signal (z-score)” value (Gal(b1-4)Gal) was -0.537 and the “glycan array binding signal (z-score)” value [13] was -1.13. The “glycan array binding signal (z-score)” value [14] was -0.802, the “glycan array binding signal (z-score)” value (Gal(b1-4)Glc) was 0.137 and the “glycan array binding signal (z-score)” value (Gal(b1-4)Glc6S) was 0.58. The “glycan array binding signal (z-score)” value (Gal(b1-4)GlcNAc) was 0.653, the “glycan array binding signal (z-score)” value [15] was 0.594 and the “glycan array binding signal (z-score)” value (Gal(b1-4)GlcNAc(b1-2)Man) was -0.232. For the same binder, the “glycan array binding signal (z-score)” value [16] was -0.219, the “glycan array binding signal (z-score)” value [17] was -0.691 and the “glycan array binding signal (z-score)” value [18] was 1.1. The “glycan array binding signal (z-score)” value [19] was 0.369, the “glycan array binding signal (z-score)” value [20] was -0.661 and the “glycan array binding signal (z-score)” value [21] was -0.618. The “glycan array binding signal (z-score)” value [22] was -0.515, the “glycan array binding signal (z-score)” value [23] was -0.522 and the “glycan array binding signal (z-score)” value [24] was -0.932. The “glycan array binding signal (z-score)” value [25] was -0.565, the “glycan array binding signal (z-score)” value [26] was -0.485 and the “glycan array binding signal (z-score)” value [27] was 0.247. For the same binder, the “glycan array binding signal (z-score)” value [28] was -0.969, the “glycan array binding signal (z-score)” value [29] was -0.721 and the “glycan array binding signal (z-score)” value [30] was 0.214. For the same binder, the “glycan array binding signal (z-score)” value [31] was -0.77, the “glycan array binding signal (z-score)” value [32] was -0.862 and the “glycan array binding signal (z-score)” value [33] was -1.03. The “glycan array binding signal (z-score)” value [34] was -0.8, the “glycan array binding signal (z-score)” value [35] was -0.403 and the “glycan array binding signal (z-score)” value [36] was -0.96. For the same binder, the “glycan array binding signal (z-score)” value [37] was 0.169, the “glycan array binding signal (z-score)” value [38] was 0.209 and the “glycan array binding signal (z-score)” value [39] was 0.464.
